{"source": "PubChem BioAssay AID504793 (Drosophila RNAi Screening Center, 2011)", "test": "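Knock-downs allowing continued mitosis even though DNA is damaged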 (primary screen)", "cells": "Drosophila S2R+ cells", "reagent": "long dsRNA against Drosophila genes, about 0.25 µg dsRNA per well", "time to read-out": "4 days of dsRNA, then 4 hours of drug before read-out", "challenge": "doxorubicin 0.5 µM for 4 hours to cause double-strand breaks, in cells also given a low, harmless dose of dsRNA against nbs to sensitise the assay", "measured": "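Mitotic index as the number of phospho-histone H3-positive cells in each well following doxorubicin, given as raw counts without normalisation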", "reading the numbers": "mitotic cells: higher = more cells in mitosis, weaker G2 arrest", "hit rule": "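a call needs confirmation in secondary tests, with other dsRNAs and a check of mitotic timing without damage, not just a high primary count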", "meaning of the calls": "active = confirmed in follow-up tests; inactive = not confirmed", "note": "The deposit covers about 23,000 reagents; below is a random part of those that have a named target and a result. Of all reagents, 62 (0.27%) got an active call. 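Calls come from follow-up tests whose scores are not deposited, so confirmed genes may have low counts here; counts are not normalised per plate.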 Raw values vary from plate to plate and are shown uncorrected. Entries without a mark were called inactive. A plus sign joins genes that one reagent is predicted to hit."}
{"Target gene":"CG14989","DRSC id":"DRSC08448","mitotic cells, replicate 1":9}
{"Target gene":"CG14989","DRSC id":"DRSC25585","mitotic cells, replicate 1":12}
{"Target gene":"bru1 (bruno 1)","DRSC id":"DRSC01234","mitotic cells, replicate 1":2}
{"Target gene":"bru1 (bruno 1)","DRSC id":"DRSC01236","mitotic cells, replicate 1":22}
{"Target gene":"bru1 (bruno 1)","DRSC id":"DRSC01237","mitotic cells, replicate 1":16}
{"Target gene":"bru1 (bruno 1)","DRSC id":"DRSC01238","mitotic cells, replicate 1":21}
{"Target gene":"bru1 (bruno 1)","DRSC id":"DRSC03485","mitotic cells, replicate 1":3}
{"Target gene":"trv (trivet)","DRSC id":"DRSC13846","mitotic cells, replicate 1":10}
{"Target gene":"trv (trivet)","DRSC id":"DRSC14560","mitotic cells, replicate 1":12}
{"Target gene":"trv (trivet)","DRSC id":"DRSC14561","mitotic cells, replicate 1":9}
{"Target gene":"trv (trivet)","DRSC id":"DRSC25527","mitotic cells, replicate 1":5}
{"Target gene":"trv (trivet)","DRSC id":"DRSC25789","mitotic cells, replicate 1":3}
{"Target gene":"CG32523","DRSC id":"DRSC20510","mitotic cells, replicate 1":3}
{"Target gene":"CG12546 + CG14452","DRSC id":"DRSC11709","mitotic cells, replicate 1":3}
{"Target gene":"CG12546 + CG14452","DRSC id":"DRSC29979","mitotic cells, replicate 1":8}

Copied from the list.
Under “mitotic cells, replicate 1”, trv (trivet) [DRSC14560] reads 12
Under “mitotic cells, replicate 1”, trv (trivet) [DRSC14561] reads 9
